This note sets out measurements from patent US20230072421A1 (Bayer AS, priority 2019, published 2023).

A short description of one data set: general procedure: peptide synthesis; 2-chlorotrityl resin; HATU; PyAOP. To be noted: conjugation step.
For the substance “tri-tert-butyl (3S,10S,14S)-3-[(naphthalen-2-yl)methyl]-1,4,12-trioxo-1-[4-({2-[4,7,10-tris(2-tert-butoxy-2-oxoethyl)-1,4,7,10-tetraazacyclododecan-1-yl]acetamido}methyl)phenyl]-2,5,11,13-tetraazahexadecane-10,14,16-tricarboxylate”, the conjugation yield was 55% yield and the “final purity (method not given)” value is on record as 85% purity.

The same data set, now with this note: coupling step.
Turning to “tri-tert-butyl (3S,10S,14S)-1-{4-[({[(9H-fluoren-9-yl)methoxy]carbonyl}amino)methyl]phenyl}-3-[(naphthalen-2-yl)methyl]-1,4,12-trioxo-2,5,11,13-tetraazahexadecane-10,14,16-tricarboxylate”, the “final purity (method not given)” value was 95% purity and the step yield is listed as 25% yield. The matching figures for “tri-tert-butyl (3S,10S,14S)-1-{(1r,4S)-4-[({[(9H-fluoren-9-yl)methoxy]carbonyl}amino)methyl]cyclohexyl}-1,4,12-trioxo-3-[(quinolin-2-yl)methyl]-2,5,11,13-tetraazahexadecane-10,14,16-tricarboxylate”: 95% purity and 32% yield.

For “tri-tert-butyl (3S,10S,14S)-1-{(1r,4S)-4-[({[(9H-fluoren-9-yl)methoxy]carbonyl}amino)methyl]cyclohexyl}-1,4,12-trioxo-3-[(quinolin-3-yl)methyl]-2,5,11,13-tetraazahexadecane-10,14,16-tricarboxylate”, the “final purity (method not given)” value is 100% purity and the step yield is 31% yield. The like results for “tri-tert-butyl (3S,10S,14S)-1-{(1r,4S)-4-[({[(9H-fluoren-9-yl)methoxy]carbonyl}amino)methyl]cyclohexyl}-1,4,12-trioxo-3-{[3-(pentafluoro-lambda^6-sulfanyl)phenyl]methyl}-2,5,11,13-tetraazahexadecane-10,14,16-tricarboxylate” were, in that order, 99% purity and 15% yield. With “tri-tert-butyl (3S,10S,14S)-1-{(1r,4S)-4-[({[(9H-fluoren-9-yl)methoxy]carbonyl}amino)methyl]cyclohexyl}-3-[(2-methylphenyl)methyl]-1,4,12-trioxo-2,5,11,13-tetraazahexadecane-10,14,16-tricarboxylate”, the “final purity (method not given)” value is given as 93% purity and the step yield is 75% yield.

Consider “tri-tert-butyl (3S,10S,14S)-1-{(1r,4S)-4-[({[(9H-fluoren-9-yl)methoxy]carbonyl}amino)methyl]cyclohexyl}-3-[(3-fluorophenyl)methyl]-1,4,12-trioxo-2,5,11,13-tetraazahexadecane-10,14,16-tricarboxylate”, for which the step yield stood at 26% yield. Regarding “tri-tert-butyl (3S,10S,14S)-1-{(1r,4S)-4-[({[(9H-fluoren-9-yl)methoxy]carbonyl}amino)methyl]cyclohexyl}-3-[(4-methylphenyl)methyl]-1,4,12-trioxo-2,5,11,13-tetraazahexadecane-10,14,16-tricarboxylate”, the “final purity (method not given)” value was found to be 98% purity and the step yield was found to be 64% yield. “tri-tert-butyl (3S,10S,14S)-1-{(1r,4S)-4-[({[(9H-fluoren-9-yl)methoxy]carbonyl}amino)methyl]cyclohexyl}-3-[(naphthalen-2-yl)methyl]-1,4,12-trioxo-2-[(6-oxo-1,6-dihydropyridin-2-yl)methyl]-2,5,11,13-tetraazahexadecane-10,14,16-tricarboxylate” displayed a step yield of 11% yield. For the substance “tri-tert-butyl (3S,10S,14S)-3-[(4-tert-butylphenyl)methyl]-1-{(1r,4S)-4-[({[(9H-fluoren-9-yl)methoxy]carbonyl}amino)methyl]cyclohexyl}-1,4,12-trioxo-2,5,11,13-tetraazahexadecane-10,14,16-tricarboxylate”, the step yield came to 57% yield. The same measure, in the same setting: the value for “tri-tert-butyl (3S,10S,14S)-3-[([1,1′-biphenyl]-4-yl)methyl]-1-{(1r,4S)-4-[({[(9H-fluoren-9-yl)methoxy]carbonyl}amino)methyl]cyclohexyl}-1,4,12-trioxo-2,5,11,13-tetraazahexadecane-10,14,16-tricarboxylate” was 25% yield. With “tri-tert-butyl (4S,11S,15S)-1-[4-({[(9H-fluoren-9-yl)methoxy]carbonyl}amino)phenyl]-4-[(naphthalen-2-yl)methyl]-2,5,13-trioxo-3,6,12,14-tetraazaheptadecane-11,15,17-tricarboxylate”, the “final purity (method not given)” value was found to be 80% purity and the step yield was 40% yield. As for “tri-tert-butyl (7S,14S,18S)-7-({(1r,4S)-4-[({[(9H-fluoren-9-yl)methoxy]carbonyl}amino)methyl]cyclohexane-1-carbonyl}amino)-1,8,16-trioxo-1-(pyridin-3-yl)-2,9,15,17-tetraazaicosane-14,18,20-tricarboxylate”, the “final purity (method not given)” value is 98% purity and the step yield was 70% yield.

Turning to “tri-tert-butyl (8S,15S,19S)-8-({(1r,4S)-4-[({[(9H-fluoren-9-yl)methoxy]carbonyl}amino)methyl]cyclohexane-1-carbonyl}amino)-2,9,17-trioxo-3,10,16,18-tetraazahenicosane-15,19,21-tricarboxylate”, the “final purity (method not given)” value amounted to 85% purity and the step yield is listed as 48% yield. The like results for “tri-tert-butyl (10S,14S)-1-{5-[({[(9H-fluoren-9-yl)methoxy]carbonyl}amino)methyl]pyridin-2-yl}-3-[(naphthalen-2-yl)methyl]-1,4,12-trioxo-2,5,11,13-tetraazahexadecane-10,14,16-tricarboxylate” were, in that order, 90% purity and 78% yield.

Still in this data set, the particulars now being: late stage modification step.
Consider “tri-tert-butyl (3S,10S,14S)-1-[(1r,4S)-4-(aminomethyl)cyclohexyl]-3-[(2-methylphenyl)methyl]-1,4,12-trioxo-2,5,11,13-tetraazahexadecane-10,14,16-tricarboxylate”, for which the “final purity (method not given)” value stood at 80% purity. Take “tri-tert-butyl (3S,10S,14S)-1-[(1r,4S)-4-(aminomethyl)cyclohexyl]-3-[(3-fluorophenyl)methyl]-1,4,12-trioxo-2,5,11,13-tetraazahexadecane-10,14,16-tricarboxylate”: the step yield is given as 80% yield. Regarding “tri-tert-butyl (3S,10S,14S)-1-[(1r,4S)-4-(aminomethyl)cyclohexyl]-3-[(4-methylphenyl)methyl]-1,4,12-trioxo-2,5,11,13-tetraazahexadecane-10,14,16-tricarboxylate”, the “final purity (method not given)” value was found to be 80% purity and the step yield worked out at 47% yield.

Take “tri-tert-butyl (3S,10S,14S)-1-[(1r,4S)-4-(aminomethyl)cyclohexyl]-3-[(4-tert-butylphenyl)methyl]-1,4,12-trioxo-2,5,11,13-tetraazahexadecane-10,14,16-tricarboxylate”: the step yield was determined as 74% yield.

Turning to “tri-tert-butyl (3S,10S,14S)-1-[(1r,4S)-4-(aminomethyl)cyclohexyl]-3-[(naphthalen-2-yl)methyl]-1,4,12-trioxo-2-[(6-oxo-1,6-dihydropyridin-2-yl)methyl]-2,5,11,13-tetraazahexadecane-10,14,16-tricarboxylate”, the “final purity (method not given)” value is recorded as 85% purity and the step yield was found to be 14% yield.

As for “tri-tert-butyl (4S,11S,15S)-1-(4-aminophenyl)-4-[(naphthalen-2-yl)methyl]-2,5,13-trioxo-3,6,12,14-tetraazaheptadecane-11,15,17-tricarboxylate”, the “final purity (method not given)” value was 90% purity and the step yield came to 77% yield.

With “tri-tert-butyl (8S,15S,19S)-8-{[(1r,4S)-4-(aminomethyl)cyclohexane-1-carbonyl]amino}-2,9,17-trioxo-3,10,16,18-tetraazahenicosane-15,19,21-tricarboxylate”, the “final purity (method not given)” value is given as 73% purity.
